Reference: patent US20230242658A1
These are yes or no findings as the source states them, for the method shown. A result given as binding can be weak or reduced; the word gives no strength.

Target: histidine-labeled cynomolgus monkey 4-1BB protein (cynomolgus monkey)
Assay: BLI Octet RED96

B1: PR001838 (antibody, human IgG1, V domains shown)
VH: EVQLLESGGGLVQPGGSLRLSCAASGFTFSNYAMSWFRQPPETGLKWVSSIDGSGGDTYYADSVKGRFTISRDNSKNTLYLQMNSLRAEDTAVYYCAKEGSHGTDDSHYDVDVWGQGTTVTVSS
binding: binds
